Results: article PMC7583046, “The Paralogue of the Intrinsically Disordered Nuclear Protein 1 Has a Nuclear Localization Sequence that Binds to Human Importin α3” (International Journal of Molecular Sciences, 2020)
No constants are given. Whether binding was seen depends on the method and setting. Some results given as binding are weak or reduced against the parent protein; the word gives no strength.

Legend:
[1] = target: NLS-NUPR1L, peptide of the nuclear localization sequence of NUPR1L (residues 51-74); test: translational diffusion NMR (DOSY); peptide at 120 μM in 100% D2O, 283 K, pH 7.2, 50 mM deuterated Tris; Rh by comparison with dioxane; both purified
[2] = target: T1, human importin α3 (Impα3), intact (human, UniProt O00629 1-521); test: far-UV CD spectra (complex against the sum of the spectra); 50 mM phosphate buffer, pH 7.0, 298 K; concentrations as in the fluorescence spectra; both purified
T1 construct: Human importin α3 (KPNA4), intact protein with the IBB domain, residues 1-521; Purification as for ∆Impα3; also called KPNA4; source: E. coli BL21 (DE3), purified (codon-optimized DNA synthesized by NZYtech, in the pHTP1 vector)
T1 sequence (looked up): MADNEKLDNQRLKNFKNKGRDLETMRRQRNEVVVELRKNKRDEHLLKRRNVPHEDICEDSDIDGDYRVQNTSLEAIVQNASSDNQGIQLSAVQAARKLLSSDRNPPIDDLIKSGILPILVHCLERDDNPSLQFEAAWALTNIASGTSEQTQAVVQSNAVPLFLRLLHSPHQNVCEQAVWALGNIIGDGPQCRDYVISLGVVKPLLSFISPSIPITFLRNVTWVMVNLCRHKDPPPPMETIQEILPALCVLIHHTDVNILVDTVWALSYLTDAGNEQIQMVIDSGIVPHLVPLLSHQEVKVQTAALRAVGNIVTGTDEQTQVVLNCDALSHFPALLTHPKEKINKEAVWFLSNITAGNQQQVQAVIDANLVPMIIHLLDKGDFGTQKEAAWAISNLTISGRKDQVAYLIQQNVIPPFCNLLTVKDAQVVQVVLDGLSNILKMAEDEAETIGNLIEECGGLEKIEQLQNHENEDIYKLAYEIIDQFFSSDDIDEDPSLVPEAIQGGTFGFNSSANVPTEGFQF

[3] = target: T1, human importin α3 (Impα3), intact; test: steady-state fluorescence spectra (complex against the sum of the spectra); 50 mM phosphate buffer, pH 7.0, 298 K; excitation at 280 or 295 nm; NUPR1L 15 μM (protomer units) with importin 5 μM; NLS-NUPR1L 10 μM with importin 4 μM; both purified

Binder: RTRREQALRTNWPAPGGHERKVAQ (acetylation at the N terminus; amidation at the C terminus) [NLS-NUPR1L, peptide of the nuclear localization sequence of NUPR1L (residues 51-74)]
- binding [1]: no binding (tested: 120 μM)
- binding [2]: binds
- binding [3]: binds
